PubChem BioAssay AID1347076 (National Center for Advancing Translational Sciences (NCATS), 2019)
Screen size: about 400,000 compounds; about 13,000 (3.2%) were called active. The inconclusive results got no clear call from the source; some entries with a clear call stand among them for comparison. Calls follow the shape of the dose curve; as a rule, active = well fitted cell-killing curve with a large enough effect; inconclusive = small, poorly fitted or top-dose-only effect, or effect the other way; inactive = flat fitted curve, though single readings scatter. A potency beside an inconclusive call is a rough fit, not a confirmed value.

Assay: qHTS assay for MDR1-selective chemotherapeutics: Primary screen using the drug-selected MDR subline cells KB-V1; also: nearly all actives have a fitted effect of over 60% in size
Conditions: KB-V1 MDR cells viability, CellTiter-Glo, 72 h; activity change, negative = cytotoxicity: at 46.1 µM (top of the series)
Summary of the method: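 Luminescent ATP read-out (CellTiter-Glo, 10 min) measures survival of drug-selected KB-V1 MDR cells after 72 h, 37 degrees C compound exposure. Medium: phenol-red-free DMEM, 10% FBS. Values from fitted concentration-response curves.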
% is scaled to controls: 0 for no effect and ±100 for the full control effect; potency is read from the fitted curve at half-maximal effect.

Structure (SMILES) | Potency | activity change, negative = cytotoxicity
CCOC(=O)C1(NC(=O)C2(NC(=O)CN3C(=O)c4ccccc4C3=O)CCCC2)CCCC1 | inactive | –
Cc1noc(NC(=O)c2ccccc2C(F)(F)F)c1C#N | inactive | –
Cc1cc(C)c(S(=O)(=O)c2ccc(Cl)cc2C)c(Cl)n1 | inconclusive: 18.4 µM [cytotoxic, single point] | –
CNc1cc[n+](C)c2ccccc12 | inconclusive: 18.4 µM [rising, partial curve, poor fit] | –
Cc1cccc(CNC(=O)C2CCC(CNS(=O)(=O)c3ccc4c(c3)CCCC(=O)N4)CC2)c1 (centres undefined) | inconclusive: 16.4 µM [rising, partial curve, poor fit] | –
CCc1nc(N2CCN(C(=O)c3ccccc3)CC2)c(C#N)c2c1COC(C)(C)C2 | inconclusive: 29.1 µM [cytotoxic, single point] | –
CC(=O)c1cccc(NC(=S)NC(=O)c2cccc(Cl)c2)c1 | inactive | –
COC(=O)c1cn(-c2cccc(C)n2)cn1 | inconclusive: 29.1 µM [rising, single point] | –
COc1cccc(CN2CCC(C(=O)N3CCN(c4ccccc4F)CC3)CC2)c1 | inconclusive: 14.6 µM [cytotoxic, partial curve, poor fit] | –
COc1ccc([C@H]2CC(=O)C[C@@H](CCn3cc(-c4nccn4C)nn3)O2)cc1 | inconclusive: 29.1 µM [rising, single point] | –
CC1CCc2c(c3ccccc3[nH]c2=O)O1 (centres undefined) | inconclusive: 29.1 µM [cytotoxic, single point] | –
Cc1ccccc1Cc1c(C)nc2c(C(=O)NCc3ccc4c(c3)OCO4)cnn2c1C | active: 18.4 µM | –
Cc1ccc(CSc2ccc3nnc(-c4cccnc4)n3n2)cc1 | inconclusive: 29.1 µM [cytotoxic, single point] | –
Cc1ccc(C(=O)CSc2nnc3c4ccccc4nc(C(C)(C)C)n23)cc1 | inconclusive: 18.4 µM [cytotoxic, partial curve, poor fit] | –
O=C(CSc1nc2ccccc2c(=O)n1-c1ccccc1)N1CCCc2ccccc21 | – | inconclusive: -3.06%
CCO[C@H]1OC(C(=O)N2CCN(C)CC2)=C[C@@H](c2ccc3c(c2)OCO3)[C@@H]1CCCO | inactive | –
Cn1c(=O)cc(OCCCC(=O)NCc2ccc(F)cc2Cl)c2ccccc21 | inconclusive: 11.6 µM [cytotoxic, partial curve] | –
O=C(CSC1=NCCS1)Nc1ccc(S(=O)(=O)N2CCCCCC2)cc1 | inconclusive: 29.1 µM [cytotoxic, single point] | –
O=C(Nc1cccc2nsnc12)c1cccnc1Cl | inconclusive: 1.46 µM [rising, full curve, poor fit] | –
COc1cccc(CC(NC(C)=O)C(=O)NC2CCN(c3nnnn3-c3ccccc3)CC2)c1OC (centres undefined) | inconclusive: 29.1 µM [rising, single point] | –
COc1ccc(/C(O)=C(\C#N)c2nc3ccccc3n2C)cc1OC | active: 5.8 µM | –
CC1CCN(S(=O)(=O)c2ccc(NC(=O)Cn3nnc(-c4ccccc4)n3)cc2)CC1 | active: 14.6 µM | –
Nc1ccc(CC(N)c2csc(Nc3nncc4ccccc34)n2)cc1 (centres undefined) | active: 23.1 µM | –

Copied from the list.
`COc1ccc(/C(O)=C(\C#N)c2nc3ccccc3n2C)cc1OC` – Potency: active: 5.8 µM
`Nc1ccc(CC(N)c2csc(Nc3nncc4ccccc34)n2)cc1` (centres undefined) – Potency: active: 23.1 µM

Record cards, as listed above:
`COc1cccc(CN2CCC(C(=O)N3CCN(c4ccccc4F)CC3)CC2)c1` is listed as Potency: inconclusive: 14.6 µM [cytotoxic, partial curve, poor fit]
`O=C(CSC1=NCCS1)Nc1ccc(S(=O)(=O)N2CCCCCC2)cc1` is listed as Potency: inconclusive: 29.1 µM [cytotoxic, single point]
`COc1ccc([C@H]2CC(=O)C[C@@H](CCn3cc(-c4nccn4C)nn3)O2)cc1` is listed as Potency: inconclusive: 29.1 µM [rising, single point]

(listing goes on)

Structure (SMILES) | Potency | activity change, negative = cytotoxicity
CC(C)CC(=O)NC(=S)NNC(=O)c1ccc(NC(=O)C2CCCCC2)cc1 | inconclusive: 6.51 µM [cytotoxic, partial curve] | –
CCN(C(=O)C1CCN(S(=O)(=O)c2cc(Br)cc3c2N(C(C)=O)CC3)CC1)c1cccc(C)c1 | inactive | –
COc1ccc(CNC(=O)CCc2c[nH]c3ccccc23)cc1 | inconclusive: 0.0065 µM [rising, full curve, poor fit] | –
c1ccc2c(c1)CCNC2c1ccncc1 (centres undefined) | inconclusive: 32.6 µM [rising, single point] | –
CCC1CCCCN1CCCNC(=O)c1ccc2nc(N3CCCCC3)sc2c1 (centres undefined) | inconclusive: 3.26 µM [cytotoxic, full curve, poor fit] | –
Cc1ccc(NC(=S)Nc2ccc(OC(F)F)c(Cl)c2)cc1F | inconclusive: 16.4 µM [cytotoxic, single point] | –
CCn1c(=O)c(C(=O)NNC(=O)Cc2ccccc2)c(O)c2ccccc21 | inconclusive: 4.61 µM [cytotoxic, full curve] | –
CCOC(=O)c1[nH]c(CSc2nnc(-c3ccc(OC)cc3)o2)c(C(=O)OCC)c1C | inconclusive: 29.1 µM [cytotoxic, single point] | –
CCOC(=O)[C@]12CCCC=C1N(Cc1ccc(Cl)cc1Cl)C(=O)[C@H](CC(=O)NCC1CCCCC1)C2 | inconclusive: 7.31 µM [cytotoxic, partial curve] | –
NC(=O)C1CCN(C(=O)CCC(=O)c2cccs2)CC1 | inactive | –
CO/N=C/C(=N\Nc1ccc(C)cc1)C(=O)c1ccc(OC)cc1 | active: 4.61 µM | –
CC12C(=O)N(c3cccc4cccnc34)C(=O)C1C1C=CC2C1 (centres undefined) | inconclusive: 0.58 µM [rising, full curve, poor fit] | –
O=C(Nc1ccc(Cc2ccncc2)cc1)c1ccc(Cl)c([N+](=O)[O-])c1 | inconclusive: 16.4 µM [cytotoxic, single point] | –
CN(C)CCCN(C(=O)/C=C/c1cccs1)c1nc2ccc(F)cc2s1 | active: 18.4 µM | –
Cc1cccc(C)c1Nc1nnc(SCc2nc3ccccc3s2)s1 | active: 16.4 µM | –
Cc1cccc(C(=O)NNC(=O)c2c(-c3ccccc3Cl)noc2C)c1O | inconclusive: 20.6 µM [cytotoxic, single point] | –
Cc1ccc(NC2=Nc3ccccc3N3C2=Nc2c(c(C)nn2-c2ccccc2)C3c2ccc(O)c(O)c2)cc1 (centres undefined) | inconclusive: 32.6 µM [cytotoxic, single point] | –
CCn1c(SCC(=O)Nc2cc(C)c(Cl)cc2OC)nnc1-c1ccco1 | inconclusive: 8.2 µM [cytotoxic, partial curve] | –
COC(=O)c1[nH]c2c(c1C)C(=O)CC(c1cccs1)C2 (centres undefined) | active: 2.06 µM | –
CCN(Cc1ccccc1)C(=O)Cn1c(=O)n(-c2ccccc2)c(=O)c2c1c1cc(C)ccc1n2C | inactive | –
Cc1cc2nc(-c3cccc(Br)c3)c(CC3CCCCC3)n2c(C)c1Br | inactive | –
CCN(CC)S(=O)(=O)c1ccc(Cl)c(NC(=O)CSc2cccc[n+]2[O-])c1 | inconclusive: 29.1 µM [rising, single point] | –
O=C(N/N=C/c1cccc(F)c1)c1cc(-c2ccco2)nc2ccccc12 | inconclusive: 16.4 µM [cytotoxic, single point] | –

Structure (SMILES) | Potency | activity change, negative = cytotoxicity
COc1ccc(-c2nn3c(=O)cc(CN4CCN(C(=O)/C=C/c5ccccc5)CC4)nc3s2)cc1 | inactive | –
Cn1nc(-c2ccc(C(=O)Nc3cccc(Cl)c3)cc2)c2ccccc2c1=O | inconclusive: 1.3 µM [cytotoxic, partial curve, poor fit] | –
C#CCNC(=O)C1=C[C@@H](c2csc3ccccc23)C[C@@H](OCc2ccc(CO)cc2)O1 | inactive | –
CSCCC(NC(=O)c1ccccc1)C(=O)N(C)CC(=O)Nc1ccc(N2CCOCC2)cc1 (centres undefined) | inconclusive: 16.4 µM [rising, single point] | –
Cc1cccc(N(CC(=O)NCC2CCCO2)C(=O)CCC(=O)Nc2nccs2)c1 (centres undefined) | inactive | –
COc1cccc(CC2(CO)CCCN(Cc3cn[nH]c3-c3ccc(F)cc3)C2)c1 (centres undefined) | inconclusive: 23.1 µM [cytotoxic, single point] | –
CCN1CCN(Cc2ccc(NC(=O)c3cc(NC(=O)N4CCNC4=O)cc(OC)c3)cc2C(F)(F)F)CC1 | inconclusive: 29.1 µM [rising, single point] | –
COc1ccc(NC(=O)c2cc(C)n(Cc3cccs3)c2C)cc1 | inactive | –
Cc1cccc(C)c1NC(=O)c1ccc2c(c1)nnn2C1CCCC1 | inconclusive: 29.1 µM [cytotoxic, single point] | –
O=C(Nc1ccc(Cl)cc1)C1Cc2c(-c3ccc4c(c3)OCO4)ccnc2O1 (centres undefined) | inconclusive: 14.6 µM [cytotoxic, single point] | –
Cc1cc([N+](=O)[O-])c(NC2CCCCC2)c([N+](=O)[O-])c1 | inconclusive: 2.06 µM [rising, partial curve, poor fit] | –
CC1(c2nnc(Cc3ccccc3)o2)CC(c2cccc(F)c2)=NO1 (centres undefined) | inactive | –
COc1ccc(C2CC(=O)Nc3c2c(=O)[nH]c2nc4ccccc4n32)cc1 (centres undefined) | inactive | –
C=C(c1ccc2nc(NC(=O)OC)[nH]c2c1)c1cccs1 | active: 0.651 µM | –
S=C(NCc1ccco1)N/N=C/c1ccccc1Cl | inconclusive: 20.6 µM [cytotoxic, single point] | –
CCCc1cc(=O)[nH]c(SCC(=O)NC2CCCc3ccccc32)n1 (centres undefined) | inconclusive: 20.6 µM [cytotoxic, single point] | –
O=C(NCc1ccco1)C1CCN(S(=O)(=O)N2CCOCC2)CC1 | inactive | –
CCN(Cc1ccccc1)C(=O)c1cccc(S(=O)(=O)N2CCN(Cc3ccccc3)CC2)c1 | inconclusive: 3.66 µM [cytotoxic, full curve, poor fit] | –
Cc1ccccc1COC(=O)c1nn(-c2ccccc2)nc1N | inactive | –
C[C@]12CCC(O)CC1=CCC1C2CC[C@]2(C)/C(=N\NC(N)=S)CCC12 (some centres undefined) | inactive | –
Cc1ccc(OCc2nnc(SCC(=O)NCc3ccco3)n2C)cc1 | inactive | –
O=C(c1ccc(CS(=O)Cc2ccc(Cl)cc2)o1)N1CCN(c2ccccn2)CC1 (centres undefined) | inconclusive: 20.6 µM [cytotoxic, single point] | –
COc1ccc(Cc2nn3c(Cn4nnc5ccccc54)nnc3s2)cc1 | inconclusive: 18.4 µM [cytotoxic, single point] | –
